The record followed here is PMC11516157.

Protein sequences, listed by entry. Tags and fused reporters are not part of them. Residues count along the entry.
UniProt P36894, residues 24-532: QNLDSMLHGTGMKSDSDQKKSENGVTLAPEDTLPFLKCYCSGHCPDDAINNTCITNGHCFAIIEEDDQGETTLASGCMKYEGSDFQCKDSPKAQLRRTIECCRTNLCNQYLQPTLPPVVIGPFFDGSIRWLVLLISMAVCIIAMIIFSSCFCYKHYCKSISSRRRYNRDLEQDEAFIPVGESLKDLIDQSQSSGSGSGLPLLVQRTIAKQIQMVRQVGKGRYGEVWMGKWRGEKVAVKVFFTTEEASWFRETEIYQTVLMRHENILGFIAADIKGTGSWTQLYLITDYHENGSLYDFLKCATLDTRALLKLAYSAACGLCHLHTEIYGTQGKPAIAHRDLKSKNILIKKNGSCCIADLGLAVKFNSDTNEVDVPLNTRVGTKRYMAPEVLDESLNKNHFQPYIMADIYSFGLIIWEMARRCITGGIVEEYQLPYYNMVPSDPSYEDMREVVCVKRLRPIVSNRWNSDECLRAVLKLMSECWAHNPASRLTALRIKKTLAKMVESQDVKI

No constants are given. Whether binding was seen depends on the method and setting. In cells and extracts the contact can be indirect. Some entries that bind do so weakly or less than the wild type.

The target in the experiment is BMPR1A (BMP2 membrane receptor) (human (endogenous in hRIFs)) (UniProt P36894). As to the kind of experiment: co-IP; anti-BMPR1A immunoprecipitation from hRIFs; blots for BMP2 and OMD.

B1: osteomodulin (OMD), endogenous in human renal interstitial fibroblasts (protein, UniProt Q99983 21-421)
chain: QYETYQWDEDYDQEPDDDYQTGFPFRQNVDYGVPFHQYTLGCVSECFCPTNFPSSMYCDNRKLKTIPNIPMHIQQLYLQFNEIEAVTANSFINATHLKEINLSHNKIKSQKIDYGVFAKLPNLLQLHLEHNNLEEFPFPLPKSLERLLLGYNEISKLQTNAMDGLVNLTMLDLCYNYLHDSLLKDKIFAKMEKLMQLNLCSNRLESMPPGLPSSLMYLSLENNSISSIPEKYFDKLPKLHTLRMSHNKLQDIPYNIFNLPNIVELSVGHNKLKQAFYIPRNLEHLYLQNNEIEKMNLTVMCPSIDPLHYHHLTYIRVDQNKLKEPISSYIFFCFPHIHTIYYGEQRSTNGQTIQLKTQVFRRFPDDDDESEDHDDPDNAHESPEQEGAEGHFDLHYYENQE
Take B1: the binding entry is “binds”.
